Source: PubChem BioAssay AID1053209 (Peter MacCallum Cancer Centre, 2014)

Test: 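Knock-downs that sensitise mouse osteosarcoma cells to doxorubicin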 (follow-up of hits)
System: mouse primary osteosarcoma cells
Reagents: single siRNA against mouse genes, 25 nM (text also states 40 nM)
Time to read-out: about 120 h (48 h before drug, then 72 h with drug)
Conditions: doxorubicin 100 nM (about IC30-40), added 48 h after transfection, for 72 h
Read-out: 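ATP-based luminescent viability, with or without doxorubicin, relative to non-targeting control NT1, mean of two replicates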
Reading the numbers: viability with doxorubicin, vs NT1: higher = more viable cells under doxorubicin; viability without drug, vs NT1: higher = more viable cells without drug
Hit rule: 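Counted as active (class LC dox) if viability falls to 0.7 of NT1 or below under doxorubicin but stays within 0.7 to 1.1 without drug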
In all, the deposit lists about 1,580 reagents; below is an unselected part. Over the whole deposit, 207 (13%) were called active. 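Rows are single siRNAs; four siRNAs per gene were tested, a gene counting as confirmed only when at least two agree.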 Unmarked entries are inactive. The numbers tell different reagents against one gene apart. Further read-outs or replicates are left out here.

With Cnn1 (GeneID 12797) #1, what was measured?
combined effect class: low viability only with doxorubicin; normal without drug (active); viability with doxorubicin, vs NT1: 0.65; viability without drug, vs NT1: 0.81

What is on record for Cnn1 (GeneID 12797) #2?
combined effect class: normal viability with and without drug; viability with doxorubicin, vs NT1: 0.98; viability without drug, vs NT1: 1.05

With Cnn1 (GeneID 12797) #3, what was measured?
combined effect class: low viability with and without drug; viability with doxorubicin, vs NT1: 0.46; viability without drug, vs NT1: 0.5

Which result is listed for Cnn1 (GeneID 12797) #4?
combined effect class: normal viability with and without drug; viability with doxorubicin, vs NT1: 0.9; viability without drug, vs NT1: 0.88

Reagents listed above marked active:
Cnn1 (GeneID 12797) #1 | combined effect class: low viability only with doxorubicin; normal without drug (active); viability with doxorubicin, vs NT1: 0.65; viability without drug, vs NT1: 0.81

Continued.
With Chmp4b (GeneID 75608) #1, how do the results read?
combined effect class: low viability only with doxorubicin; normal without drug (active); viability with doxorubicin, vs NT1: 0.33; viability without drug, vs NT1: 0.77

How did the screen score Chmp4b (GeneID 75608) #2?
combined effect class: normal viability with and without drug; viability with doxorubicin, vs NT1: 0.97; viability without drug, vs NT1: 0.98

For Chmp4b (GeneID 75608) #3, what does the deposit list?
combined effect class: low viability only with doxorubicin; normal without drug (active); viability with doxorubicin, vs NT1: 0.25; viability without drug, vs NT1: 0.78

What did the screen give for Chmp4b (GeneID 75608) #4?
combined effect class: low viability only with doxorubicin; normal without drug (active); viability with doxorubicin, vs NT1: 0.44; viability without drug, vs NT1: 0.84

Which result is listed for Nup155 (GeneID 170762) #1?
combined effect class: low viability only with doxorubicin; normal without drug (active); viability with doxorubicin, vs NT1: 0.58; viability without drug, vs NT1: 0.82

What is on record for Nup155 (GeneID 170762) #2?
combined effect class: low viability only with doxorubicin; normal without drug (active); viability with doxorubicin, vs NT1: 0.61; viability without drug, vs NT1: 0.93

For Nup155 (GeneID 170762) #3, what does the deposit list?
combined effect class: low viability only with doxorubicin; normal without drug (active); viability with doxorubicin, vs NT1: 0.55; viability without drug, vs NT1: 0.82

What is on record for Nup155 (GeneID 170762) #4?
combined effect class: normal viability with and without drug; viability with doxorubicin, vs NT1: 1.05; viability without drug, vs NT1: 1
